The text below walks through data of article PMC5741900.

By UniProt entry, the sequences of proteins in these tests, tags left out. Where a name states a change or a piece, a line headed by the entry shows the natural chain unless it says otherwise.
UniProt Q9UER7: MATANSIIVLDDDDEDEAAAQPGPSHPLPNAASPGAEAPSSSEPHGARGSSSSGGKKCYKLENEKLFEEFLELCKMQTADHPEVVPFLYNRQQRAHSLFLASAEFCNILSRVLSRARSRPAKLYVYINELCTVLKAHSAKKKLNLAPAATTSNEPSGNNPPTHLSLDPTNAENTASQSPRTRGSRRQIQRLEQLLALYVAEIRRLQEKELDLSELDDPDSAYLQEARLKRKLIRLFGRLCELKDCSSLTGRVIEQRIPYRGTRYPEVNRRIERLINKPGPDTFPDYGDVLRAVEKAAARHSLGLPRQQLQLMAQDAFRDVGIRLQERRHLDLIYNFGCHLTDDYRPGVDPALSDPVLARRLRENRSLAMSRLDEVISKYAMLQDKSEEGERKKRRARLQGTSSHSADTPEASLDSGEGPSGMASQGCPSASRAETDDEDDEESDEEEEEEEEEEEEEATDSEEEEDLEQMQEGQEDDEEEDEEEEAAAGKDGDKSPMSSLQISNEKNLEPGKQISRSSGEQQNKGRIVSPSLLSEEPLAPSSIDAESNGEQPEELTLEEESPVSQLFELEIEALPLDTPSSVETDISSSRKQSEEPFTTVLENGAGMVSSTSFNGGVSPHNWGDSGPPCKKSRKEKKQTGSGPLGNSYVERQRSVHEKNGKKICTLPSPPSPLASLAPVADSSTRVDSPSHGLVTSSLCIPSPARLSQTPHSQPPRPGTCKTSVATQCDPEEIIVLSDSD

The assay concerns the target FLAG-HA-DaxxΔSIM (UniProt Q9UER7). Nature of the assay: co-IP; FLAG magnetic beads on the chromatin fraction (400 mM NaCl extract) of HEp2 cells stably expressing FLAG-HA-Daxx or FLAG-HA-DaxxΔSIM; washed six times with high salt buffer, eluted with FLAG peptide; blot with CREST and CENP-B antibodies.

Results are given in words; binding and its absence hold for the method and conditions named. Binding seen in cells or lysates may run through a third protein.

B1: CENP-B (centromere protein B), endogenous (protein, UniProt P07199 1-599)
chain: MGPKRRQLTFREKSRIIQEVEENPDLRKGEIARRFNIPPSTLSTILKNKRAILASERKYGVASTCRKTNKLSPYDKLEGLLIAWFQQIRAAGLPVKGIILKEKALRIAEELGMDDFTASNGWLDRFRRRHGVVSCSGVARARARNAAPRTPAAPASPAAVPSEGSGGSTTGWRAREEQPPSVAEGYASQDVFSATETSLWYDFLPDQAAGLCGGDGRPRQATQRLSVLLCANADGSEKLPPLVAGKSAKPRAGQAGLPCDYTANSKGGVTTQALAKYLKALDTRMAAESRRVLLLAGRLAAQSLDTSGLRHVQLAFFPPGTVHPLERGVVQQVKGHYRQAMLLKAMAALEGQDPSGLQLGLTEALHFVAAAWQAVEPSDIAACFREAGFGGGPNATITTSLKSEGEEEEEEEEEEEEEEGEGEEEEEEGEEEEEEGGEGEELGEEEEVEEEGDVDSDEEEEEDEESSSEGLEAEDWAQGVVEAGGSFGAYGAQEEAQCPTLHFLEGGEDSDSDSEEEDDEEEDDEDEDDDDDEEDGDEVPVPSFGEAMAYFAMVKRYLTSFPIDDRVQSHILHLEHDLVHVTRKNHARQAGVRGLGHQS
Turning to B1, the binding entry is on record as “no binding”.
